Measured values: US12213481B1, “4,4′-[(2-hydroxypropane-1,3-diyl)bis(oxy)]dibenzaldehyde as an eco-friendly insecticidal agent against Spodoptera littoralis (boisd.)” (KING FAISAL UNIVERSITY, priority 2023, dated 2025)

System: Spodoptera littoralis larvae (2nd and 4th instars, laboratory strain of cotton leafworm)
Assay: Insecticidal leaf dip bioassay screening
Conditions: after 72 hours of treatment, probit (LDP-line)

**Q.** Which Slope (2nd instar larvae) does the source give for `O=Cc1ccc(OCC(O)COc2ccc(C=O)cc2)cc1` [Compound 1, 4,4′-[(2-hydroxypropane-1,3-diyl)bis(oxy)]dibenzaldehyde] here?
**A.** Its Slope is 0.246 ± 0.0792.

**Q.** What about the Slope (4th instar larvae) of the same compound?
**A.** Its Slope is 0.297 ± 0.097.

**Q.** How did the Slope (2nd instar larvae) turn out when `CCOC(=O)NCCOc1ccc(Oc2ccccc2)cc1` [fenoxycarb, reference compound] was run?
**A.** The Slope was 0.298 ± 0.0808.

**Q.** And the Slope (4th instar larvae)?
**A.** Its Slope is 0.225 ± 0.0870.
